Assay results from the supplement of paper PMC12067093, “Discovery and optimisation of a covalent ligand for TRIM25 and its application to targeted protein ubiquitination” (Chemical Science, 2025).
This is one part of the list.

By UniProt entry, the sequences of proteins in these tests, tags left out. Where a name states a change or a piece, a line headed by the entry shows the natural chain unless it says otherwise.
UniProt Q9UBB5, whole entry, looked up: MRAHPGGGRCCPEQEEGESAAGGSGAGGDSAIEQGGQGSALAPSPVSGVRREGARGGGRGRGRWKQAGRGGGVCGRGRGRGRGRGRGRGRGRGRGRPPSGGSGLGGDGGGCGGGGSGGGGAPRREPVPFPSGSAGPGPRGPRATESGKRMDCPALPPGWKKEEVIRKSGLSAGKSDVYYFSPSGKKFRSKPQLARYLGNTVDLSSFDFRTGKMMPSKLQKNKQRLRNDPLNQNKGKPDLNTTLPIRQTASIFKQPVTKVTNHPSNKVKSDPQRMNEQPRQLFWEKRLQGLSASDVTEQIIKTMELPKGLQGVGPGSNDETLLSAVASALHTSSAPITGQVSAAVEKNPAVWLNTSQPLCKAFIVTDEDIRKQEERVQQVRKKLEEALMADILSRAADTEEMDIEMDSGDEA
UniProt Q8WXG6, whole entry, looked up: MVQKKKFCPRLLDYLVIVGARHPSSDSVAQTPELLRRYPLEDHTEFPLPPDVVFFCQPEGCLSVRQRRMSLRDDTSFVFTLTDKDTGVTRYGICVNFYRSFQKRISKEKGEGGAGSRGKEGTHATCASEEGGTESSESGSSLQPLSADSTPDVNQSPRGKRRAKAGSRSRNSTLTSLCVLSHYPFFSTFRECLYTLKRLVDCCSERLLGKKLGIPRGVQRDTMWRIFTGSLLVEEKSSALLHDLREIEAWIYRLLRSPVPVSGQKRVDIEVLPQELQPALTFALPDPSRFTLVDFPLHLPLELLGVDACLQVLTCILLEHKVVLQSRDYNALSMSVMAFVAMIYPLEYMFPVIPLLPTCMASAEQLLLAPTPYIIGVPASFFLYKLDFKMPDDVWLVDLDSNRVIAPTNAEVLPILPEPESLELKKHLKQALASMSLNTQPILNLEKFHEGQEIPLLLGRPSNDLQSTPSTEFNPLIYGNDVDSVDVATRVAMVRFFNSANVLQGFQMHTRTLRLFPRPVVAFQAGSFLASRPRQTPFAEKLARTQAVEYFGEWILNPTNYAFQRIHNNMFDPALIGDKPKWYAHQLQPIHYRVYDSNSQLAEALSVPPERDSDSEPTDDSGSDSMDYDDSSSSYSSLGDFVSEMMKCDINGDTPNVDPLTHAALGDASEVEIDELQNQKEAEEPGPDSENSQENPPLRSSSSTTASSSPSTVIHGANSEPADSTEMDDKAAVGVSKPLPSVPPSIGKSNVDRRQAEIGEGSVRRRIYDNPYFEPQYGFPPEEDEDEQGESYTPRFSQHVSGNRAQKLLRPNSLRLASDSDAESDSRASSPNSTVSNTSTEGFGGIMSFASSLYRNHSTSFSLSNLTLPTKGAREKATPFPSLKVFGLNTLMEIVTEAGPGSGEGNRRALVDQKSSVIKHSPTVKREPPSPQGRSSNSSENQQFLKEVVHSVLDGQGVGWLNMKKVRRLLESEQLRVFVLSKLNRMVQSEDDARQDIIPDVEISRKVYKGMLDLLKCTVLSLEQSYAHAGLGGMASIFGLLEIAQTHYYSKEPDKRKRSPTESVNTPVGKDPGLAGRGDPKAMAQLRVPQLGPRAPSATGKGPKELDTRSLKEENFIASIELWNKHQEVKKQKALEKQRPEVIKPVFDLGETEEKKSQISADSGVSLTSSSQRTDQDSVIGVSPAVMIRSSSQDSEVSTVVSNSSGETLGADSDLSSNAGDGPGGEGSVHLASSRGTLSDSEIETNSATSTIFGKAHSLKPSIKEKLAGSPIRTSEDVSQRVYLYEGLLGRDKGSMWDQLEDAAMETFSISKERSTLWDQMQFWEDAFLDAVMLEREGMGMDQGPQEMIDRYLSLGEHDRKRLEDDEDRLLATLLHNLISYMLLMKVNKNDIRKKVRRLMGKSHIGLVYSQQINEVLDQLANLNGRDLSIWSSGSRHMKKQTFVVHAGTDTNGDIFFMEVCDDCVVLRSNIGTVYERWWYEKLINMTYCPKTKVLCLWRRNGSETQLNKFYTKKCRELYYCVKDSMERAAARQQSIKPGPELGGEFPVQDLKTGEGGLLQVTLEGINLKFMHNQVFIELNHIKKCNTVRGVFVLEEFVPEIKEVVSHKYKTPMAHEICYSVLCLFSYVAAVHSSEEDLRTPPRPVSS
UniProt O00462: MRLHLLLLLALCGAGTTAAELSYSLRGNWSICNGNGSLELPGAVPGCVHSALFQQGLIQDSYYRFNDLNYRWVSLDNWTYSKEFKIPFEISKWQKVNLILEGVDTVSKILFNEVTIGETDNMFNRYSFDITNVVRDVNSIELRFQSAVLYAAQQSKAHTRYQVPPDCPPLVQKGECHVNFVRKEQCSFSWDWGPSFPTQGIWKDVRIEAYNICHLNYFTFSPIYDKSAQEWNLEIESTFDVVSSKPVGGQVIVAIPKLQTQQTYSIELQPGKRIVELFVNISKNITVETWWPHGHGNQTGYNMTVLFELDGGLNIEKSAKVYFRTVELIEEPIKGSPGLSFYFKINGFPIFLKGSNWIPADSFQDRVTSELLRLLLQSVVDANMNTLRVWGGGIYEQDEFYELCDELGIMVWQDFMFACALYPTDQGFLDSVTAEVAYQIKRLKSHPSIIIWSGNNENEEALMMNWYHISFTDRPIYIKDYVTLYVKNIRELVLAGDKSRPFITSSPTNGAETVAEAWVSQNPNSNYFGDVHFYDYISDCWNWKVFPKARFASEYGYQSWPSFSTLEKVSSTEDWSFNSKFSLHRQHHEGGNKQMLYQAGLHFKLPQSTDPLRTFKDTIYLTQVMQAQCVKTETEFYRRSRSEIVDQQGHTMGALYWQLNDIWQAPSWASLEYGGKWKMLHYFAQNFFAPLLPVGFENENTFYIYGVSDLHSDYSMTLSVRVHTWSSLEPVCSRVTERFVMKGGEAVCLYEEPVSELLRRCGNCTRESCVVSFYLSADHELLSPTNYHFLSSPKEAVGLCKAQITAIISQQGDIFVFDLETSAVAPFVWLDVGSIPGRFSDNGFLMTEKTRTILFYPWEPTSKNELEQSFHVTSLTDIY
UniProt Q66K74: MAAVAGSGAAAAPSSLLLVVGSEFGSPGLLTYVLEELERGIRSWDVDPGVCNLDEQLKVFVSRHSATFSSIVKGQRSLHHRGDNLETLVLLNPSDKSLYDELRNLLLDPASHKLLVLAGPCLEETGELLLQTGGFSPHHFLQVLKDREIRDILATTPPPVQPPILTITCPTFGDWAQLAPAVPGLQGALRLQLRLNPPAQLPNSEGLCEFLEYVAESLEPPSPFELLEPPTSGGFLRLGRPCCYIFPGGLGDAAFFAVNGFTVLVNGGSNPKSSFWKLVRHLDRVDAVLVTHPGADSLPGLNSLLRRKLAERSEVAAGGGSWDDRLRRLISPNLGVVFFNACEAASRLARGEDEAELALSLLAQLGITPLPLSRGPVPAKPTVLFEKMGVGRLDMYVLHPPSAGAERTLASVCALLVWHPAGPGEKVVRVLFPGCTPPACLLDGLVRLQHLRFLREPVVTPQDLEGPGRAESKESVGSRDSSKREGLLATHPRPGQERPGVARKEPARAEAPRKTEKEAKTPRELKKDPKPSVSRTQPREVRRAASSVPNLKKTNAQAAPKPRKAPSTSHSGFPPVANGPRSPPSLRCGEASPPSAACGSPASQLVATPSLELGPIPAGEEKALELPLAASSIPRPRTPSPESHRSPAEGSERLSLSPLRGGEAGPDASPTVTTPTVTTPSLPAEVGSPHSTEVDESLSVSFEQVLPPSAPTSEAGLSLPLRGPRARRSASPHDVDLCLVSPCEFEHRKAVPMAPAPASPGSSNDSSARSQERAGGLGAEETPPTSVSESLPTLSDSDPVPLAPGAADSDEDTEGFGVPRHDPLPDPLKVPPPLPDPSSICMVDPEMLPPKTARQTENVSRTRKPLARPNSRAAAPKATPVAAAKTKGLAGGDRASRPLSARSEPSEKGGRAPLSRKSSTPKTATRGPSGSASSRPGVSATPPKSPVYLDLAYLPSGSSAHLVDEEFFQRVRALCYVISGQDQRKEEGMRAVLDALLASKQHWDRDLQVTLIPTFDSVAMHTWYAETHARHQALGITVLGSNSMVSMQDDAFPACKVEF
UniProt P56192: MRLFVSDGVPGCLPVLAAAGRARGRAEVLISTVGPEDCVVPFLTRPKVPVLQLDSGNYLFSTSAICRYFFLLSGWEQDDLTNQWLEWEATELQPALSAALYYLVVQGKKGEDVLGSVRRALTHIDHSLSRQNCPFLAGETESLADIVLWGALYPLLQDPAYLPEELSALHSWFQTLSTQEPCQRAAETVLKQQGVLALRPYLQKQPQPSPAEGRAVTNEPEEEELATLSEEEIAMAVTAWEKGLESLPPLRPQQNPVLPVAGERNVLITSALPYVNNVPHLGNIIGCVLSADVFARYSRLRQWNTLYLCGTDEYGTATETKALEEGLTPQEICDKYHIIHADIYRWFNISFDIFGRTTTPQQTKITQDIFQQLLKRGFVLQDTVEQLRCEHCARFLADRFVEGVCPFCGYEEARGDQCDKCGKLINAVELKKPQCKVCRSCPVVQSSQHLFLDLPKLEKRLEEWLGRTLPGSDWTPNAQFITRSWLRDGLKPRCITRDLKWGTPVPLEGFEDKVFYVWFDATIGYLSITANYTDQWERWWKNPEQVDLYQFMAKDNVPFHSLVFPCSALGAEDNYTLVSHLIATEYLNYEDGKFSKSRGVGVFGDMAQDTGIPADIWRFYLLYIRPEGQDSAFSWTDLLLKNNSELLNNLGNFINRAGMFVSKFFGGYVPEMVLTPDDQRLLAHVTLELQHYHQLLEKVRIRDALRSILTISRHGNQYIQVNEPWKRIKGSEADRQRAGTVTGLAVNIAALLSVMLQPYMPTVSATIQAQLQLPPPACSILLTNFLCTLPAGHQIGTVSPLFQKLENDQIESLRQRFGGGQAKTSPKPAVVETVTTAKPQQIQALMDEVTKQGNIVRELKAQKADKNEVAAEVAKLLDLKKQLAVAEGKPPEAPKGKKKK
UniProt O00754: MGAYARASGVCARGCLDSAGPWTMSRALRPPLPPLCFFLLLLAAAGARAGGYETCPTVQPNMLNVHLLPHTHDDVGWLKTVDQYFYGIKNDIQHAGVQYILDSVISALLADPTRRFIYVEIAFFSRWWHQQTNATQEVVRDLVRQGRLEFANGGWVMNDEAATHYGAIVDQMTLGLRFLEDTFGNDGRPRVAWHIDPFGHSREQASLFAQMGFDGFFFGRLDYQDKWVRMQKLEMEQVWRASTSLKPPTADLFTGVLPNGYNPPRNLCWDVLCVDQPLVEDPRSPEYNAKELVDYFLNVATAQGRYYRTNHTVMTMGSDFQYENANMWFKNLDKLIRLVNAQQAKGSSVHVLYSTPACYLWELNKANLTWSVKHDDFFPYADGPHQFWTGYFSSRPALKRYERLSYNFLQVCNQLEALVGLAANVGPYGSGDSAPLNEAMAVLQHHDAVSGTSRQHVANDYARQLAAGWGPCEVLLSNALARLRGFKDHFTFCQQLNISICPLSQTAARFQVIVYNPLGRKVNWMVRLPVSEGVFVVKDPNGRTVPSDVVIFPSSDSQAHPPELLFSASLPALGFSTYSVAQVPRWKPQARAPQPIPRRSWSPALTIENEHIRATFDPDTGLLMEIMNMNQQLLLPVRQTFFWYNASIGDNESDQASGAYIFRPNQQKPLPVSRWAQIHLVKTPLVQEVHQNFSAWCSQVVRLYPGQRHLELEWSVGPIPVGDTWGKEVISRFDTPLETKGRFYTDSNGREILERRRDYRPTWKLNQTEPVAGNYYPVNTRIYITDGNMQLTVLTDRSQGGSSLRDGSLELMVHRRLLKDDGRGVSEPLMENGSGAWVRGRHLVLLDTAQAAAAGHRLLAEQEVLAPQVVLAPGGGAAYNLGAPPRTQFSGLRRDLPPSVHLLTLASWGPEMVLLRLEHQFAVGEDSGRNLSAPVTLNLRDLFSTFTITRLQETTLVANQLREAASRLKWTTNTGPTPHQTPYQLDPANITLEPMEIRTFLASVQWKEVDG
UniProt P09960: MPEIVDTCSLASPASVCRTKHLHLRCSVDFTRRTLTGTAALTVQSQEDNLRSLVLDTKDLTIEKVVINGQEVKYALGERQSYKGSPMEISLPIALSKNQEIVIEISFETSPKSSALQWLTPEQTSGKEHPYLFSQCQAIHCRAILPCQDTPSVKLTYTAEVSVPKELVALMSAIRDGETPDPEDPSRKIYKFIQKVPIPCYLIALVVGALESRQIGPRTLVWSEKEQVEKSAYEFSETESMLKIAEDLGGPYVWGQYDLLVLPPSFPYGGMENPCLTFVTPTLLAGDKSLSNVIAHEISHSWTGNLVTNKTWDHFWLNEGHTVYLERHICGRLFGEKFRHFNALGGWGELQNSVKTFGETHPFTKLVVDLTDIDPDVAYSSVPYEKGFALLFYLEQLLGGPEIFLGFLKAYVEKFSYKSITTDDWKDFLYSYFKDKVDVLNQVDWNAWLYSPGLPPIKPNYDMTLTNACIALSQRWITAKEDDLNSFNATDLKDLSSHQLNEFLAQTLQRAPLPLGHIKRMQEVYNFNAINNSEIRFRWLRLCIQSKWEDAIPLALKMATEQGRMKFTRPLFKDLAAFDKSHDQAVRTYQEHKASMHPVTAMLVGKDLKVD

Compound: CC1Cc2ccccc2N1C(=O)C1CCCN(C1)C(=O)CCl (mixture of isomers) [TRIM25 ligand 11 (diastereomer mixture)]
Assay: probe-labelled cysteine peptide fold change vs DMSO (competition) (log2 fold change); higher = less target engagement (more negative = stronger competition)
Conditions: THP-1, incubation time: 4 h
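Also: competitive chemoproteomic profiling in live THP-1 cells with an iodoacetamide desthiobiotin (IA-DTB) probe, comparing probe-labelled peptide intensities in compound-treated cells against DMSO-treated controls.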

| Target | probe-labelled cysteine peptide fold change (10 µM) | probe-labelled cysteine peptide fold change (50 µM) |
| --- | --- | --- |
| LY75_O60449_1060_IPENFFEEESRYHCALILNLQK (UniProt O60449) | -0.284 | -0.227 |
| MAN2B2_Q9Y2E5_288_TPHVLWPWGCDK (UniProt Q9Y2E5) | 0.0845 | 0.0207 |
| MAP3K1_Q13233_1012_LQGFIPCR (UniProt Q13233) | 0.246 | 0.159 |
| MBD2_Q9UBB5_152_MDCPALPPGWK (UniProt Q9UBB5) | -0.164 | -0.00934 |
| LYPLA1_O75608_144_LAGVTALSCWLPLR (UniProt O75608) | -0.0238 | 0.129 |
| LY75_O60449_1060_YHCALILNLQK (UniProt O60449) | 0.183 | 0.185 |
| MADD_Q8WXG6_1521_ELYYCVK (UniProt Q8WXG6) | -0.0221 | 0.0787 |
| MAPK9_P45984_213_ENVDIWSVGCIMGELVK (UniProt P45984) | 0.0811 | 0.179 |
| MANBA_O00462_176_GECHVNFVR (UniProt O00462) | 0.0138 | -0.0444 |
| LZTS1_Q9Y250_450_GLELEVCENELQR (UniProt Q9Y250) | 0.203 | 0.42 |
| MACF1_Q9UPN3_443_IQNGALNCEEK (UniProt Q9UPN3) | 0.147 | 0.132 |
| MAN2C1_Q9NTJ4_871_WMDLSEHGFGLALLNDCK (UniProt Q9NTJ4) | 0.38 | 0.327 |
| LYRM7_Q5U5X0_97_KDLLVENVPYCDAPTQK (UniProt Q5U5X0) | -0.0925 | -0.25 |
| LYST_Q99698_1855_VHELENCNGLSMIHQVLIK (UniProt Q99698) | 0.0231 | 0.0915 |
| MAP1S_Q66K74_738+743_SASPHDVDLCLVSPCEFEHR (UniProt Q66K74) | 0.0822 | -0.265 |
| MARS_P56192_389_CEHCAR (UniProt P56192) | 0.0927 | 0.0581 |
| MAP1S_Q66K74_743_SASPHDVDLCLVSPCEFEHR (UniProt Q66K74) | -0.0363 | -0.283 |
| LYST_Q99698_3701_LWTVNGDLVGHVHCR (UniProt Q99698) | 0.0831 | 0.162 |
| MAP3K4_Q9Y6R4_1322_NIIGQVCDTPK (UniProt Q9Y6R4) | 0.0711 | -0.148 |
| LYPLA2_O95372_56_YICPHAPR (UniProt O95372) | 0.0524 | -0.0211 |
| MADD_Q8WXG6_1489_LINMTYCPK (UniProt Q8WXG6) | 0.148 | -0.121 |
| MAP3K4_Q9Y6R4_596_CSAVSWEELK (UniProt Q9Y6R4) | 0.147 | 0.286 |

| Target | probe-labelled cysteine peptide fold change (10 µM) | probe-labelled cysteine peptide fold change (50 µM) |
| --- | --- | --- |
| MATR3_P43243_552_EDAMAMVDHCLK (UniProt P43243) | 0.0586 | 0.0873 |
| MACROD1_Q9BQ69_246_SCYLSSLDLLLEHR (UniProt Q9BQ69) | -0.0302 | -0.0149 |
| LY75_O60449_150_KGGSEESLCDQPYHEIYTR (UniProt O60449) | 0.0216 | -0.013 |
| MANF_P55145_151_ILDDWGETCK (UniProt P55145) | -0.0447 | 0.021 |
| MAN2A2_P49641_382_INCPWK (UniProt P49641) | 0.0131 | 0.063 |
| MAP7D3_Q8IWC1_264_CTSDELR (UniProt Q8IWC1) | -0.0917 | -0.147 |
| LUC7L_Q9NQ29_97_DLFFELDAMDHLESFIAECDRR (UniProt Q9NQ29) | 0.104 | 0.00511 |
| LYPLA1_O75608_169_DISILQCHGDCDPLVPLMFGSLTVEK (UniProt O75608) | -0.0615 | -0.324 |
| LYN_P07948_226_ACISPK (UniProt P07948) | 0.0436 | 0.2 |
| LY75_O60449_597_AVTFSNWNFLEPASPGGCVAMSTGK (UniProt O60449) | -0.491 | -0.356 |
| M6PR_P20645_132_GGDEYDNHCGK (UniProt P20645) | -0.0971 | -0.257 |
| LYPLA1_O75608_173_DISILQCHGDCDPLVPLMFGSLTVEK (UniProt O75608) | -0.358 | 0.0477 |
| MBD4_O95243_268_ESVCNK (UniProt O95243) | -0.131 | -0.259 |
| MAP3K20_Q9NYL2_242_SFAELLHQCWEADAK (UniProt Q9NYL2) | 0.0196 | -0.0121 |
| MAEA_Q7L5Y9_61_TLSGCPAVDSVVSLLDGVVEK (UniProt Q7L5Y9) | -0.278 | -0.111 |
| MBNL1_Q9NR56_200_GENDCR (UniProt Q9NR56) | -0.0763 | 0.0299 |
| LYAR_Q9NX58_33_NCECLSCIDCGK (UniProt Q9NX58) | -0.0571 | -0.0779 |
| MAP3K3_Q99759_411_EVSALECEIQLLK (UniProt Q99759) | -0.0123 | 0.113 |
| LY75_O60449_477_VQSCEEK (UniProt O60449) | 0.0985 | 0.21 |
| MAT2B_Q9NZL9_93_FEQVNLLDSNAVHHIIHDFQPHVIVHCAAER (UniProt Q9NZL9) | -0.0278 | -0.105 |
| MACF1_Q9UPN3_5116_VNSGCVMMENK (UniProt Q9UPN3) | 0.0171 | 0.222 |
| MAP10_Q9P2G4_256_AECDNVGSVENGK (UniProt Q9P2G4) | 0.0362 | -0.143 |

| Target | probe-labelled cysteine peptide fold change (10 µM) | probe-labelled cysteine peptide fold change (50 µM) |
| --- | --- | --- |
| MAT2A_P31153_104_TCNVLVALEQQSPDIAQGVHLDR (UniProt P31153) | 0.0363 | 0.0806 |
| MACF1_Q9UPN3_3315_TVSLTVCSAVK (UniProt Q9UPN3) | -0.229 | -0.296 |
| MARS2_Q96GW9_336+344_ICVHSHWTVCGQK (UniProt Q96GW9) | 0.15 | 0.0821 |
| MAPK7_Q13164_359_YHDPDDEPDCAPPFDFAFDR (UniProt Q13164) | 0.0359 | -0.0609 |
| MAPRE1_Q15691_228_NIELICQENEGENDPVLQR (UniProt Q15691) | 0.21 | 0.0703 |
| MACF1_Q9UPN3_6075_ILGADLIFACGETEKPEVR (UniProt Q9UPN3) | 0.101 | 0.259 |
| MBD2_Q9UBB5_111_GRPPSGGSGLGGDGGGCGGGGSGGGGAPR (UniProt Q9UBB5) | -0.0117 | -0.261 |
| MAN2B1_O00754_273_NLCWDVLCVDQPLVEDPR (UniProt O00754) | -0.0362 | -0.232 |
| LYST_Q99698_2223_SEDDSPGDESCPR (UniProt Q99698) | -0.102 | -0.385 |
| MATR3_P43243_293+296_GYPHLCSICDLPVHSNK (UniProt P43243) | -0.198 | -0.0671 |
| LTA4H_P09960_8_PEIVDTCSLASPASVCR (UniProt P09960) | -0.161 | -0.076 |
| LY75_O60449_922_TWLIDLGKPTDCSTK (UniProt O60449) | 0.0303 | 0.0536 |
| LYZ_P61626_48_GISLANWMCLAK (UniProt P61626) | -0.11 | -0.144 |
| MAPK3_P27361_144_SQQLSNDHICYFLYQILR (UniProt P27361) | -0.16 | 0.327 |
| MAP2K4_P45985_246_LCDFGISGQLVDSIAK (UniProt P45985) | -0.087 | 0.0237 |
| MARS_P56192_309_LRQWNTLYLCGTDEYGTATETK (UniProt P56192) | -0.163 | -0.0566 |
| MAK16_Q9BXY0_17_QFCSFK (UniProt Q9BXY0) | -0.141 | 0.0665 |
| MACF1_Q9UPN3_3173_HQISSSNECK (UniProt Q9UPN3) | -0.0534 | -0.119 |
| LYSMD2_Q8IV50_106_LFTNDCIFLK (UniProt Q8IV50) | -0.322 | -0.19 |
| MBD4_O95243_324_SLSSGSNFCSEQK (UniProt O95243) | 0.128 | 0.164 |
| LYPLA1_O75608_211_TYEGMMHSSCQQEMMDVK (UniProt O75608) | 0.11 | -0.348 |
| MAP4K2_Q12851_473_VHMGACFSK (UniProt Q12851) | -0.0544 | 0.0802 |

| Target | probe-labelled cysteine peptide fold change (10 µM) | probe-labelled cysteine peptide fold change (50 µM) |
| --- | --- | --- |
| MAP2K6_P52564_294_FSAEFVDFTSQCLK (UniProt P52564) | 0.103 | 0.203 |
| MACO1_Q8N5G2_315_EDSCTASSK (UniProt Q8N5G2) | -0.181 | -0.313 |
| MATR3_P43243_821_NTHCSSLPHYQK (UniProt P43243) | 0.121 | -0.196 |
| LTN1_O94822_1745_KFHSACLYK (UniProt O94822) | -0.113 | 0.0258 |
| LYAR_Q9NX58_36_NCECLSCIDCGK (UniProt Q9NX58) | -0.0649 | -0.115 |
| MAPK1_P28482_127_TQHLSNDHICYFLYQILR (UniProt P28482) | 0.115 | 0.214 |
| MBD1_Q9UIS9_350_RMDCGR (UniProt Q9UIS9) | 0.0388 | 0.0219 |
| MBD4_O95243_549_IFCVNEWK (UniProt O95243) | 0.0136 | 0.105 |
| MANBA_O00462_213_IEAYNICHLNYFTFSPIYDK (UniProt O00462) | 0.219 | 0.00413 |
| LTN1_O94822_595_KKPLEDLVCK (UniProt O94822) | 0.016 | 0.0662 |
| MAP4_P27816_635_CSLPAEEDSVLEK (UniProt P27816) | -0.069 | -0.135 |
| LY75_O60449_1422_VTWYEALNMCSQSGGHLASVHNQNGQLFLEDIVKR (UniProt O60449) | 0.213 | 0.119 |
| LTA4H_P09960_141_EHPYLFSQCQAIHCR (UniProt P09960) | 0.0431 | 0.228 |
| MAN2B1_O00754_472_QLAAGWGPCEVLLSNALAR (UniProt O00754) | 0.211 | 0.396 |
| MBD4_O95243_296_TVCISDAGACGETLSVTSEENSLVK (UniProt O95243) | 0.174 | 0.206 |
| MAT1A_Q00266_34_ICDQISDAVLDAHLK (UniProt Q00266) | 0.555 | 0.255 |
| MAPK7_Q13164_359_YHDPDDEPDCAPPFDFAFDREALTR (UniProt Q13164) | -0.0308 | -0.118 |
| MAGI3_Q5TCQ9_1279_AGSGQDQCR (UniProt Q5TCQ9) | -0.339 | 0.053 |
| MARCH5_Q9NX47_46_WVHQACLQR (UniProt Q9NX47) | -0.0321 | -0.0834 |
| MAP3K2_Q9Y2U5_405_EVNALECEIQLLK (UniProt Q9Y2U5) | -0.0048 | -0.121 |
